# From PubChem BioAssay AID1794844 (National Center for Advancing Translational Sciences (NCATS), 2023)
# Amino acid sequences for entries named in this document (tags omitted). A change or cut given only in a name is not applied to a line headed by its entry.
# UniProt C7C422: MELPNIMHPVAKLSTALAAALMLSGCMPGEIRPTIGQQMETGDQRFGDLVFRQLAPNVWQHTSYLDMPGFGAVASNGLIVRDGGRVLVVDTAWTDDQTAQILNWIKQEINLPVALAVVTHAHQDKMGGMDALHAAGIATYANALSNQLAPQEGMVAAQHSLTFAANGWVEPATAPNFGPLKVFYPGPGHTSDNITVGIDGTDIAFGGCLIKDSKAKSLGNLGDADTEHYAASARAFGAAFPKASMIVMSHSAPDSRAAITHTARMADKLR
# Among all 2,800 compounds or so, fewer than 10 were called active. Another 7% or so got no clear call; they are omitted. Calls follow the shape of the dose curve; as a rule, active = well fitted inhibition curve with a large enough effect; inconclusive = small, poorly fitted or top-dose-only effect; inactive = no such curve, though single readings can be large or run the other way. This is one part of the list.
# Biological target: Metallo-beta-lactamase type 2 (Klebsiella pneumoniae) (UniProt C7C422)
# Experiment: qHTS to identify inhibitors of the New Delhi Metallo-beta-lactamase (NDM): Nitrocefin screen against the machine-based learning selections. Also: % of control where 0% means no effect.
# Conditions: NDM-1 enzyme, nitrocefin hydrolysis, absorbance 485 nm; activity, negative = inhibition: at the top concentration
# Source text: Assay Submitter (PI): James Inglese Ph.D., Patricia Dranchak Ph.D., Mahesh Aitha Ph.D. Assay Development and Screening Technology Laboratory (ADST) National Center for Advancing Translational Sciences (NCATS), Rockville, MD National Institute of Health (NIH), Bethesda, Maryland The metallo-beta-lactamases (MBL) are a main antibiotic resistance mechanism evolved by bacteria. There is an urgent clinical need for MBL inhibitors to mitigate this growing threat. To support a machine-based learning study, qHTS has been used to experimentally test inhibitors identified by prediction tools.
# PROTOCOL TABLE (as described by Inglese et al., 2007) SEQUENCE No. (e.g., 1, 2, 3, etc.); […] (e.g., enzyme, Incubation, Reagent, etc.); VALUE; DESCRIPTION Primary Screen 1; NDM-1; 4 uL of 3 nM enzyme [2 nM final] in 50 mM HEPES (pH 7.0), 1 uM […], 0.01% Tween20; Use BioRaptr to dispense into two sets of Aurora black, clear bottom high base 1536-well plates 2; Compounds; 23 nL; Use Pin Tool (Wako) to transfer DMSO control and library compounds in DMSO 3; Incubate; >30 min 4a; Reagent; 2 uL of 50 uM nitrocefin [16.7 uM final] to one set of assay plates 4b; Reagent; 2 uL of 150 uM meropenem [50 uM final] to second set of assay plates 5a; Incubate; 15 min 5b; Incubate; 30 min 6a; Detector; Absorbance at 485 nm (bandwidth = 5 nm, 25 flashes/well) on Tecan Infinity 6b; Detector; Absorbance at 300 nm (bandwidth = 5 nm, 25 flashes/well) on Tecan Infinity NOTES (numbers refer to sequence above) 1; Column 1 of each plate received assay buffer without enzyme and columns 2-48 received enzyme for a final assay concentration of 2 nM. 2; Control plate contained DMSO in columns 1, 2, 3, and 4. 3; Compound interaction with enzyme. 4; Nitrocefin and meropenem substrates were prepared in the same assay buffer as step 1 for a final assay concentration of 16.7 uM and 50 uM, respectively, and added to all wells across respective sets of assay plates. 5; Default reader settings were applied for absorbance read at 485 nm (nitrocefin) or 300 nm (meropenem), bandwidth = 5 nm, 25 flashes/well. References: Inglese J, Shamu CE, Guy RK. 2007. Reporting data from high-throughput screening of small-molecule libraries. Nat Chem Biol. doi:10.1038/nchembio0807-438 Yasgar A, Shinn P, Jadhav A, Auld D, Michael S, Zheng W, Austin CP, Inglese J, Simeonov A. 2008. Compound Management for Quantitative High-Throughput Screening. J Lab Autom 13:79 - 89. doi:10.1016/j.jala.2007.12.004
row,SMILES,"activity, negative = inhibition"
1,O=C(O)C[C@@H]1CCN(C(=O)c2ccco2)C[C@@H]1CCN1CCOCC1,inactive: -16.5% [at 57.5 µM]
2,COc1ccc(CN2C(=O)CO[C@H](c3ccc(NC(=O)c4ccccc4OC)cc3)[C@H]2CO)cc1,inactive: 2%
3,CCS(=O)(=O)c1ccc2oc([C@H]3CCN(Cc4c[nH]c5ccccc45)C3)nc2c1,inactive: -5.57% [at 57.5 µM]
4,NC(=O)[C@H](Cc1cccs1)NC(=O)C1=C[C@@H](NC(=O)c2ccc(F)c(Cl)c2)[C@@H](O)[C@H](O)C1,inactive: 315%
5,COC(=O)c1[nH]nc2c1C(c1ccc(OC)c(OC)c1Cl)CC(=O)N2 (configuration not stated),inactive: -12%
6,N#Cc1cccc(-c2ccnc(N[C@H]3CO[C@H]4[C@@H]3OC[C@@H]4NC(=O)c3ccc(C(F)(F)F)cc3)n2)c1,inactive: -4.01%
7,Clc1cccnc1-c1cc(NCc2ccccn2)nc2[nH]ccc12,inactive: -5.52%
8,Cc1ccccc1-c1nccn2c(C3CN(Cc4ccc(O)cc4)C3)ncc12,inactive: -5% [at 57.5 µM]
9,COc1ccc(NC(=O)c2ccnc(-c3nnc4ccc(Nc5ccccc5)nn34)c2)cn1,inactive: -8.9% [at 57.5 µM]
10,O=C(O)c1cc(-c2ccc3cc[nH]c3c2)cc(S(=O)(=O)N2CCSCC2)c1,inactive: 24.7%
11,Cc1ccc(S(=O)(=O)Nc2ccc(C)n(CC(=O)NC(C)c3ccccc3)c2=O)cc1 (configuration not stated),inactive: -14.1%
12,CC(C)NC(=O)N1CCOc2ccc(CCC(N)=O)cc2C1,inactive: 0.491%
13,Clc1ccc(Cn2ccnc2-c2cc3n(n2)CCCNC3)cc1Cl,inactive: -18.2%
14,O=C(Nc1cccc(-c2nnc3n2CCCC3)c1)c1ccc[nH]c1=O,inactive: 0.765%
15,CC(C)C[C@@H]1N[C@H](C(=O)N(C)CCC#N)Cc2c[nH]c3cccc1c23,inactive: -7.79% [at 57.5 µM]
16,CC[C@H]1CN(C(=O)NC2CCCCC2)CC[C@H]1CC(=O)Nc1ccccc1,inactive: -11.1% [at 57.5 µM]
17,Cc1ccnn1CCC(=O)Nc1nn(C)c2cccc(N3CCOCC3)c12,inactive: 22.6%
18,O=C(NCc1nnnn1-c1ccccc1)C1NCCc2[nH]cnc21 (configuration not stated),inactive: -14.2%
19,O=C(c1cccc(F)c1)N1CCCC2(C1)NC(=O)N(Cc1ccc(Cl)cc1)C2=O (configuration not stated),inactive: -0.85%
20,COCc1ccc(C(=O)N2CC[C@](C)(O)[C@H](C)C2)s1,inactive: -4.35%
21,CCS(=O)(=O)N1CCOC[C@H](Oc2ccc(C(F)(F)F)cn2)C1,inactive: -7.76% [at 57.5 µM]

row,SMILES,"activity, negative = inhibition"
1,CN(C)c1cccc(-c2cnc3[nH]cc(CC(=O)NCc4cccnc4)c3c2)c1,inactive: 1.44% [at 57.5 µM]
2,c1ccc(CNc2cc3c(cn2)CN(Cc2cccnc2)CCN3)cc1,inactive: -2.53% [at 57.5 µM]
3,C[C@@]1(O)CCN(C(=O)CN)C[C@@H]1Cc1ccccc1,inactive: 15.7%
4,COCCCNC(=O)C1CC(=O)N(c2n[nH]c3cccc(F)c23)C1 (configuration not stated),inactive: -7.72%
5,CC(=O)Nc1ccc(CN[C@@H]2CO[C@H](CNS(C)(=O)=O)[C@H]2O)cc1,inactive: -1.54% [at 57.5 µM]
6,Clc1cc(NC2CCOCC2)n2nccc2n1,inactive: -3.87% [at 57.5 µM]
7,COc1ccc(CC(=O)N2CC[C@@H](CC(=O)O)[C@@H](CCN(CCN3CCOCC3)c3ccccc3)C2)cc1,inactive: -5.13%
8,O=C(NCCc1ccc(Cl)cc1)c1nc(-c2ccc(F)cc2)c2ccccn12,inactive: -2.34%
9,O=C(N[C@H]1CCN2C(=O)c3ccccc3NC(=O)[C@@H]2C1)C1CCCC1,inactive: 2.7% [at 57.5 µM]
10,Oc1cccc(CN2CCCC23CCN(c2ccc(C(F)(F)F)cn2)CC3)c1,inactive: 0.937%
11,COc1ccc(-c2cccc(CCOc3cnc4c(ccn4CC(=O)O)c3)c2)c(C)c1,inactive: -9.94% [at 57.5 µM]
12,Cc1ccc2c(c1)nc1n2[C@@H](CNC(=O)c2cccnc2)COC1,inactive: -0.374% [at 57.5 µM]
13,O=C(c1csc(Cc2ccccc2)n1)N1CC[C@H](CO)[C@@H](O)C1,inactive: 9.2%
14,CN1C[C@H](NCc2cccc(Cl)c2)CCC[C@@H](C(=O)N(C)Cc2cccnc2)CC1=O,inactive: 2.8%
15,OC[C@@H]1CN(c2ccc(-c3nc(-c4cccc(C(F)(F)F)c4)no3)cn2)C[C@H]1CO,inactive: 1.57%
16,COC(=O)[C@@H]1Cc2c([nH]c3ccccc23)[C@H]2C[C@@H](NCCN(C)C)C[C@@H](c3cccc(Cl)c3)N21,inactive: 7.23%
17,COc1ccccc1-c1ccc2ncc(Nc3ccc(CCO)cc3)n2n1,inactive: -10.8% [at 57.5 µM]
18,Cn1cc(CNCC2(COc3cccnc3)C[C@@H](O)[C@@H](O)C2)c2ccccc21 (some centres not stated),inactive: -11.4%
19,O=c1c2nc(-c3cccc(O)c3)ccc2ncn1C1CC1,inactive: 3.47% [at 76.7 µM]
20,COc1ccccc1-c1nnc([C@H]2CCN(Cc3ccccc3O)C2)o1,inactive: 16% [at 57.5 µM]
21,O=C(NCC1CCOCC1)Nc1cc(F)c(F)c(F)c1,inactive: -0.284%

row,SMILES,"activity, negative = inhibition"
1,Cc1noc(C)c1[S+](=O)([O-])N1CCC2(CC1)CC(=O)c1ccccc1O2,inactive: 484%
2,O=C(Cc1c[nH]c2ncc(-c3ccccc3)cc12)NCCN1CCOCC1,inactive: -4.78% [at 57.5 µM]
3,O=C(NCc1cccnc1)c1nc(-c2ccccc2)cc2[nH]ccc12,inactive: 1.33% [at 57.5 µM]
4,C[C@H](O)c1onc(-c2ccc(Cl)cc2)c1C(=O)NC1CCC1,inactive: 4.84% [at 57.5 µM]
5,Cc1noc([C@@H](C)NS(=O)(=O)c2ccc(Cl)cc2)c1C(=O)O,inactive: 4.87% [at 57.5 µM]
6,CNc1ccc(-c2noc([C@@H]3CCCN3Cc3cccc(OC)c3)n2)cn1,inactive: -1.02% [at 57.5 µM]
7,O=C(c1ccc2[nH]ccc2c1)N1CCC2(CC1)N=C(c1ccc(Br)cc1)NO2,inactive: 10.7%
8,Cc1ccc(C(=O)N2CC3CC(C2)[C@H]2CCCC(=O)N2C3)s1 (some centres not stated),inactive: -6.66%
9,Nc1nc(CCC(=O)N2CC[C@@H](NC(=O)c3cccnc3)[C@H](O)C2)cs1,inactive: 2.8%
10,CC(=O)N1CCCN(C(=O)[C@@H]2Cc3cn(C)c4cccc(c34)[C@H](CC(C)C)N2)CC1,inactive: 0.764% [at 57.5 µM]
11,O=C1Cc2c(-c3cccc(CO)c3)n[nH]c2CN1c1ccccc1,inactive: -4.56% [at 57.5 µM]
12,COc1ccc(CC(=O)N2CCC(N3CC4CC(C3)[C@H]3CCCC(=O)N3C4)CC2)cc1 (some centres not stated),inactive: -4.99%
13,COCCn1c(CO)nnc1C1CC(NC(=O)c2ccc(F)cc2F)C1 (configuration not stated),inactive: 344%
14,COCCN1C(=O)[C@@H]2C[C@@H](CN2Cc2ccc(OC)nc2)Oc2ccccc21,inactive: -2.4% [at 57.5 µM]
15,COc1cccc2c1OCC(C(=O)N1CC(Oc3ccccc3C)C1)C2 (configuration not stated),inactive: -2.13%
16,Cn1ccc2c(C(=O)NCCc3cnc[nH]3)nc(-c3ccc([S+](C)(=O)[O-])cc3)cc21,inactive: -9.99% [at 57.5 µM]
17,OC[C@H]1C[C@@H](NCc2cccc3c2OCO3)[C@H](O)[C@@H]1O,inactive: -16.7% [at 76.7 µM]
18,COc1cccc(CN2CCOC[C@H](Oc3cccnc3)C2)c1,inactive: 1.9% [at 57.5 µM]
19,O=c1c2nc(-c3ccc(O)c(F)c3)ccc2ncn1-c1ccc(F)cc1F,inactive: 0.349% [at 57.5 µM]
20,CO[C@H]1[C@H](NC(=O)COc2ccccc2)c2ccccc2C12CCNCC2,inactive: -11.8%

# Grouped by structure: the entries above containing a cyano group.
row,SMILES,"activity, negative = inhibition"
6,N#Cc1cccc(-c2ccnc(N[C@H]3CO[C@H]4[C@@H]3OC[C@@H]4NC(=O)c3ccc(C(F)(F)F)cc3)n2)c1,inactive: -4.01%
15,CC(C)C[C@@H]1N[C@H](C(=O)N(C)CCC#N)Cc2c[nH]c3cccc1c23,inactive: -7.79% [at 57.5 µM]
